Our source for the binding values is publication PMC9818419.

These are yes or no findings as the source states them, for the method shown. Binding seen in cells or lysates may run through a third protein. Binding calls can cover weak binding; strength is not graded here. Tags and fused reporters may be left off the sequences shown.

This assay deals with VN-coupled megalin mini receptor 4 (rat MMR4 fused to the N-terminal part of Venus) (rat). The assay is described as follows: split reporter; Venus-based bimolecular fluorescence complementation in co-transfected opossum kidney cells; read 8, 24, 48 or 72 h after transfection; also after endocytosis induction with albumin or lactoglobulin for 5 and 15 min.

B1: VC-coupled FcRn (rat neonatal Fc receptor fused to the C-terminal part of Venus) (receptor, UniProt P13599 23-366)
chain: AEPRLPLMYHLAAVSDLSTGLPSFWATGWLGAQQYLTYNNLRQEADPCGAWIWENQVSWYWEKETTDLKSKEQLFLEAIRTLENQINGTFTLQGLLGCELAPDNSSLPTAVFALNGEEFMRFNPRTGNWSGEWPETDIVGNLWMKQPEAARKESEFLLTSCPERLLGHLERGRQNLEWKEPPSMRLKARPGNSGSSVLTCAAFSFYPPELKFRFLRNGLASGSGNCSTGPNGDGSFHAWSLLEVKRGDEHHYQCQVEHEGLAQPLTVDLDSPARSSVPVVGIILGLLLVVVAIAGGVLLWNRMRSGLPAPWLSLSGDDSGDLLPGGNLPPEAEPQGVNAFPATS
As to B1, the binding entry is reported as “binds”.
